The values below come from publication PMC5506036, “SmMYB36, a Novel R2R3-MYB Transcription Factor, Enhances Tanshinone Accumulation and Decreases Phenolic Acid Content in Salvia miltiorrhiza Hairy Roots”.

For at least one entry, the source does not settle the construct or the ends of the probe. No signal at the amounts used counts as a negative. At least one verdict was read from the data and is not stated in words by the source. Protein sequences can lack the tags named with them.

The target in this data set is T1, SmMYB36 (Salvia miltiorrhiza) (UniProt A0A059PRJ2).
T1 sequence (looked up, limits assumed): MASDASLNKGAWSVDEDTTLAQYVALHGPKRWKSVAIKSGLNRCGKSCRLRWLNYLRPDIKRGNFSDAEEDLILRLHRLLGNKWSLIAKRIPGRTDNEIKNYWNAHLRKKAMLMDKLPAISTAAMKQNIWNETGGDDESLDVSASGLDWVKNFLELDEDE
Put plainly: EMSA. Particulars: Invitrogen EMSA kit, probe:protein mass ratio 1:15, 10 µL, protein eluted in 50 mM NaH2PO4, 300 mM NaCl, 250 mM imidazole pH 8.0, binding buffer and temperature not given, recombinant protein, protein details: His (pET32a fusion).

On to AGAAAGC (double strand) [7CK control], for which the binding result (letters put together from the description) is “no binding”.

As for “AGTTTTCTTGAA (double strand) [12CK control]”, the binding result was “no binding”.
